Results are given in words; binding and its absence hold for the method and conditions named. For some assays here: In cells and extracts the contact can be indirect. Some entries that bind do so weakly or less than the wild type. Sequences can lack the tags named with a protein.

Assay [1] concerns the target T1, GST-KDM2B_(1–734) (UniProt Q8NHM5).
T1 sequence: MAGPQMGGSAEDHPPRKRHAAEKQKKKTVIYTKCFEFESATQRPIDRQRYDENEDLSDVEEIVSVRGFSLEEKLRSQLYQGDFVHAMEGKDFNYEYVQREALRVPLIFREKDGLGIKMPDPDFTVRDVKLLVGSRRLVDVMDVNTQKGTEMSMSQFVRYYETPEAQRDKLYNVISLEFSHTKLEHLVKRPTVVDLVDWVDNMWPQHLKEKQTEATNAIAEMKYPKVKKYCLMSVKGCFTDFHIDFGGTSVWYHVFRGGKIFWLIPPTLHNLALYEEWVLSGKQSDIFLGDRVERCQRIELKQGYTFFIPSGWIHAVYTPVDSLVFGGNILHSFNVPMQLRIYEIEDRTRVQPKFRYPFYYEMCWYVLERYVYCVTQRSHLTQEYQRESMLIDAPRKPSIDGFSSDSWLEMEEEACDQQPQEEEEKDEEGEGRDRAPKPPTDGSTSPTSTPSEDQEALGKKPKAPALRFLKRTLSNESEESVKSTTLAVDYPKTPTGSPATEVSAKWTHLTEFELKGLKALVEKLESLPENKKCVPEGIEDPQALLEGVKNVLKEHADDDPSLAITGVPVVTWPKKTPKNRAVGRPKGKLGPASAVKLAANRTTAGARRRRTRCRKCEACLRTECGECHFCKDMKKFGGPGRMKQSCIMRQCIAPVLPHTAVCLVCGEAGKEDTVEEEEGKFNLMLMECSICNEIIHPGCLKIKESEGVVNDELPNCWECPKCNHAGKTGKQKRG
The experiment in a line: ITC. Background: ITC needs no label: the signal is the heat of the interaction.

Assay [2] concerns the target T2, FLAG-tagged full-length KDM2B (UniProt Q8NHM5).
T2 sequence: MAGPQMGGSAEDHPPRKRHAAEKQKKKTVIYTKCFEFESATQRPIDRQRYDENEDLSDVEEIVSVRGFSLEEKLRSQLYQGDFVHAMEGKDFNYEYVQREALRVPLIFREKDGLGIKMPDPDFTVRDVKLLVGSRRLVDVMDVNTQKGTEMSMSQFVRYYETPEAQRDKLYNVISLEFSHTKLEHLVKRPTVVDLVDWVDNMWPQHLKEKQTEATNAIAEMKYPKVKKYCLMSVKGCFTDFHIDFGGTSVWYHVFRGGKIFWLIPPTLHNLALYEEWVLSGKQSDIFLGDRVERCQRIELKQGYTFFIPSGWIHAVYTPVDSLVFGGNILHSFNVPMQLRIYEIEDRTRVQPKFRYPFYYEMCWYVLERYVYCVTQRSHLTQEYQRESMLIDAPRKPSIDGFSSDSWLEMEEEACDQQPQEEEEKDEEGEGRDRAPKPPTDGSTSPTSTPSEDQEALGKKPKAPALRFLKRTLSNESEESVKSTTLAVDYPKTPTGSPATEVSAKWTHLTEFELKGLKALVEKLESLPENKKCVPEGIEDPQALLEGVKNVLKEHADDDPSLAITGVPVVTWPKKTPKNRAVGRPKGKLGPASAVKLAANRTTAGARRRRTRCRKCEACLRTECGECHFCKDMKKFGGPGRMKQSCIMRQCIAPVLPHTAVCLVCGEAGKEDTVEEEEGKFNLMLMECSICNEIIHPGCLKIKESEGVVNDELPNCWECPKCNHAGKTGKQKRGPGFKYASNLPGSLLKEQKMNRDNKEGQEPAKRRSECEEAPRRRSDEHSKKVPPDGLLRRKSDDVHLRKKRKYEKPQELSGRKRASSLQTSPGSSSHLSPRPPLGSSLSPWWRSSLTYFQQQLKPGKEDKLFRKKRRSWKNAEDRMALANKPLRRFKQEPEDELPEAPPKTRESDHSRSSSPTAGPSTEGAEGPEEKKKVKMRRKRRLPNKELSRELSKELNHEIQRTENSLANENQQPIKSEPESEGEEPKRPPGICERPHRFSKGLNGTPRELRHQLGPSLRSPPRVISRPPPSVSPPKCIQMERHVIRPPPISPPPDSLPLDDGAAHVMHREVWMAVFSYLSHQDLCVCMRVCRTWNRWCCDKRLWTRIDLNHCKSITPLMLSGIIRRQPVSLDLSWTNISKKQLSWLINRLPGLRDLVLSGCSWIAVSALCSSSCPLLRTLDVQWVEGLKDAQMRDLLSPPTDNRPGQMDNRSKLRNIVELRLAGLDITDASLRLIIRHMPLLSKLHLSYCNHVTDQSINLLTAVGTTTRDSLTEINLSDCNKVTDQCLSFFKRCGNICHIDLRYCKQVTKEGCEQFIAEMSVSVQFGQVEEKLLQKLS
The experiment in a line: co-IP.

B1: Tri-methyl H3K79 peptide AQDFK(me3)TDLR (peptide)
peptide: AQDFKTDLR
modifications: trimethyl-lysine K(me3) at H3K79
In the case of B1, in assay [1], the binding result was “binds”.

B2: CBX8, endogenous in 293T cells (protein, UniProt Q9HC52 1-389)
chain: MELSAVGERVFAAEALLKRRIRKGRMEYLVKWKGWSQKYSTWEPEENILDARLLAAFEEREREMELYGPKKRGPKPKTFLLKAQAKAKAKTYEFRSDSARGIRIPYPGRSPQDLASTSRAREGLRNMGLSPPASSTSTSSTCRAEAPRDRDRDRDRDRERDRERERERERERERERERERGTSRVDDKPSSPGDSSKKRGPKPRKELPDPSQRPLGEPSAGLGEYLKGRKLDDTPSGAGKFPAGHSVIQLARRQDSDLVQCGVTSPSSAEATGKLAVDTFPARVIKHRAAFLEAKGQGALDPNGTRVRHGSGPPSSGGGLYRDMGAQGGRPSLIARIPVARILGDPEEESWSPSLTNLEKVVVTDVTSNFLTVTIKESNTDQGFFKEKR
In the case of B2, the binding entry in assay [2] was “binds”.

(Values after doi:10.1101/228379.)
